Measured values: paper PMC5349447, “Applying a high-throughput fluorescence polarization assay for the discovery of chemical probes blocking La:RNA interactions in vitro and in cells” (PLoS ONE, 2017)

Test system: T1, La-WT:fD1-RNA complex
T1 construct: His; made in house; host or cells: E. coli BL21
Assay: EMSA, compound competition, La-WT:fD1
Format: binding, human
Settings: native gel, fluorescence scan
Protocol: 12% native TBE polyacrylamide gels were prepared in a Mini-PROTEAN Tetra Handcast System (BioRad). The gel was pre-run for 30 min at 140 V in 1x TBE buffer (45 mM Tris/HCl pH 8.5, 45 mM boric acid, 1 mM EDTA). To prepare the RNA-mix, fluorescence labeled RNA oligoribonucleotides (oligos) were diluted in fluorescence polarization buffer (20 mM Tris/HCl (pH 7.4), 150 mM NaCl, 3.0 mM MgCl2, 0.5 mM EDTA, 0.05% (v/v) IGEPAL), mixed for 10 min at 80°C, and then immediately placed on ice for at least 5 min. All RNA oligos were used at a final concentration of 50 nM. Recombinant La protein was diluted in D-buffer (20 mM Tris/ HCl (pH 7.4), 150mM NaCl, 3mM MgCl2, 0.5mM EDTA, 5% glycerol) and placed on ice until use.
La titration was performed at final concentrations of 20, 40, 60, 100, 200, 300, 400, 500, 600 nM La. Three different La concentrations were used for compound studies: 60 nM for fD1 RNA, 200 nM for fPolyU RNA, and 150 nM for TOPf RNA studies. Two μl of diluted compound (diluted in 100% DMSO) or 2 μl 100% DMSO (control reaction) was combined with 8 μl La-mix in a 96-well plate. 10 μl RNA-mix was added, mixed for 2 min, and incubated for 10 min at RT in the dark. Final concentrations in the reaction: 18 mM Tris/HCl (pH 7.4), 135 mM NaCl, 2.7 mM MgCl2, 0.45 mM EDTA, 0.025% (v/v) IGEPAL, 2% glycerol, 10% DMSO). Samples were loaded onto the pre-run gel without any loading buffer. Gels were run at 160 V for 40 min in the dark. The gels were carefully transferred to a clear plastic wrap and scanned using a Typhoon FLA900 imager. The La-RNA complex (La-RNP) formation was quantified using the ImageQuant TL software.
Next we used our established EMSA to test whether compound C2 and C6 can compete against the three RNA oligos: fD1, fPolyU, and TOPf. All of the EMSA reactions were loaded in the following order: lane 1 contains the RNA oligo alone; lane 2 contains the RNA oligo plus La protein at concentration that shifts 50% of the RNA oligo (positive control); lanes 3–9 contain the RNA oligo, La protein and decreasing concentrations of the compound; and lane 10 contains the RNA oligo and the highest compound concentration (negative control).

SMILES	auto-fluorescence of compound in EMSA gel
Cc1ccc(C(=O)c2ccccc2C(=O)O)c(O)c1 [C2.01, 2-(2-hydroxy-4-methylbenzoyl)benzoic acid]	not showing auto-fluorescence
O=C(O)c1ccccc1C(=O)c1ccc(O)cc1O [C2, 2-(2,4-dihydroxybenzoyl)benzoic acid]	displays auto-fluorescence
CCOC(=O)c1ccc2c(c1)C1C=CCC1C(C(=O)O)N2 (stereo not shown) [C6, 8-(ethoxycarbonyl)-3a,4,5,9b-tetrahydro-3Hcyclopenta[c]quinoline-4-carboxylic acid]	not
O=C(O)c1ccccc1C(=O)c1ccc2ccccc2c1O [C2.02, 2-(1-hydroxy-2-naphthoyl)benzoic acid]	not showing auto-fluorescence
